The assay deals with cynomolgus monkey PTK-7 (cynomolgus monkey). Briefly: SPR (cross-species binding); values not given.

No constants are given. Whether binding was seen depends on the method and setting. Binding calls can cover weak binding; strength is not graded here.

B1: Ab1 (antibody, human IgG1, kappa, L234A L235A, V domains shown)
VH: EVQLVESGGGLVKPGGSLRLSCAASGFTFSSYIMNWVRQAPGKGLEWVSSISSSSTFIYYADSVKGRFTISRDNAKNSLYLQMNSLRAEDTAVYYCAKGFDYWGQGTLVTVSS
VL: DIQLTQSPSFLSASVGDRVTITCRASQDISSYLVWYQQKPGKAPKLLIYAASTLQSGVPSRFSGSGSGTEFTLTISSLQPEDFATYYCQQLNTYPRTFGQGTKVEIKR
In the case of B1, the binding result is “binds”.

The values are drawn from patent publication US20250332277A1, “PROTEIN TYROSINE KINASE 7 ANTIBODIES AND ANTIBODY-DRUG CONJUGATES” (Eli Lilly and Company, priority 2024, published 2025).
